Measured values: patent US4684622A (SmithKline Beckman Corporation, priority 1986, dated 1987)

Assay: general procedure: Boc solid-phase peptide synthesis; benzhydrylamine (BHA) resin; Merrifield resin; DCC/HBT (1-hydroxybenzotriazole)
Conditions: whole synthesis

Substance	crude yield (one disulfide bridge, sequence written open) [%]	crude yield [%]
Mpr(4-MeBzl)-D-Tyr-(Et)-Ile-Thr(OBzl)-Asn-Cys(4-MeBzl)-Arg(Tox)-Gly-BHA-R	87.81	–
d-Pen(4-MeBzl)-D-Tyr-(Et)-Phe-Gln-Asn-Cys(4-MeBzl)-Arg(Tos)-BHA-resin	–	83.85
dPen(4-MeBzl)-Tyr(Me)-Phe-Gln-Asn-Cys(4-MeBzl)-Arg(Tos)-BHA-resin	–	75
dPen-(4-MeBz)-Tyr(Me)-Phe-Gln-Asn-Cys(4-MeBz)-Arg(Tos)-BHA resin	–	60
